According to the supplement of paper PMC10849652:
The other results are listed elsewhere or left out.

Chains of the proteins cited; added tags and fusions are not shown. Lines headed by an entry give the natural chain unless they say otherwise; changes in a name come on top.
UniProt Q9HDC9: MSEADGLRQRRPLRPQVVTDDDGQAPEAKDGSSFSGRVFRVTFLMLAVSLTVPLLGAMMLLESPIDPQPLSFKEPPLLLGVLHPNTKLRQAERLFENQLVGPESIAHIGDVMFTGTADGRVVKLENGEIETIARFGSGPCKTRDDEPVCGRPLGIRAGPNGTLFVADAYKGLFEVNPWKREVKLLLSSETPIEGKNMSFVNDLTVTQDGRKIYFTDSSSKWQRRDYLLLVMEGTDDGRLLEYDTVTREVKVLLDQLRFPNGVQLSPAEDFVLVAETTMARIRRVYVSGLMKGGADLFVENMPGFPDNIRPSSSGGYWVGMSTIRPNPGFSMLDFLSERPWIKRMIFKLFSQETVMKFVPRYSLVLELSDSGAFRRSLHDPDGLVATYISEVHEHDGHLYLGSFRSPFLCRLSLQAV
UniProt Q9NP61: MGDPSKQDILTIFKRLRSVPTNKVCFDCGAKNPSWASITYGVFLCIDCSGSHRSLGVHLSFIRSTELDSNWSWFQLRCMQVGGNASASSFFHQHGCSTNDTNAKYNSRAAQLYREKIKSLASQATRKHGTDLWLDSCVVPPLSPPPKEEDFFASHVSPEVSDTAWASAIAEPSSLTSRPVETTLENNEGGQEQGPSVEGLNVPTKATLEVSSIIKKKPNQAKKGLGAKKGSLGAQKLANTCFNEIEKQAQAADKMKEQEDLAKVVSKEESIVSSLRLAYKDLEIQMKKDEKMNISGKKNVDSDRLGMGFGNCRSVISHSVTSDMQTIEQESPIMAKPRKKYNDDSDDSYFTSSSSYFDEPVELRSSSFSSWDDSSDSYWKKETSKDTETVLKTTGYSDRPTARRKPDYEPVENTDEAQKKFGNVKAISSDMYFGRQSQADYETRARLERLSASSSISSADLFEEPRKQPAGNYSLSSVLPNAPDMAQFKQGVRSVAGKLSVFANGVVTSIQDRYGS
UniProt P10398: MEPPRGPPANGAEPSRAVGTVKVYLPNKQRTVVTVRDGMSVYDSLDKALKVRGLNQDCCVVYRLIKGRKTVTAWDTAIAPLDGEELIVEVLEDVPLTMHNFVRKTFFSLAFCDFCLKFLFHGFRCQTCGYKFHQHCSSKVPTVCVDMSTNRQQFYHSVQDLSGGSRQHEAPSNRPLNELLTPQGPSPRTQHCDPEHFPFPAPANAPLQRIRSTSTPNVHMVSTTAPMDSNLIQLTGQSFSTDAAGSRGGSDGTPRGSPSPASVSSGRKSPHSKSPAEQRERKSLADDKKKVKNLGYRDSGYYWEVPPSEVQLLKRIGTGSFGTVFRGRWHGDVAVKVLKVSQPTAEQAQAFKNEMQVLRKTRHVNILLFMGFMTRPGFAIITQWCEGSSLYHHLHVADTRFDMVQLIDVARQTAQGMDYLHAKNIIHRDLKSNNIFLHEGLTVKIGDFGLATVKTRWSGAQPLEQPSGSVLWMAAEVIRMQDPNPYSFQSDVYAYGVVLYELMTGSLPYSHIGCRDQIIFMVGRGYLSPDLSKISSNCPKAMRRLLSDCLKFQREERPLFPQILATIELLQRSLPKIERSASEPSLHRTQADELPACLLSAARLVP
UniProt P61204: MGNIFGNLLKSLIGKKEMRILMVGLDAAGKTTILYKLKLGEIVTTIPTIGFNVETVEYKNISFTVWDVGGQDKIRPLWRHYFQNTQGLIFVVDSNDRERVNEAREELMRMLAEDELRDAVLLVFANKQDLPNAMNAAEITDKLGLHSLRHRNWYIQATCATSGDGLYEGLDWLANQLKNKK
UniProt Q9NRW3: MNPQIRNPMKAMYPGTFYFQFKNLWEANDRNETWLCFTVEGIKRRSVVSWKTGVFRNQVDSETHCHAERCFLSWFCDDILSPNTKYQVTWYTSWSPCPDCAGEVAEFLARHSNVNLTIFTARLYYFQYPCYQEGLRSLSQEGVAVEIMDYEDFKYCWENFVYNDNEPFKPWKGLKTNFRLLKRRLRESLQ
UniProt P62330: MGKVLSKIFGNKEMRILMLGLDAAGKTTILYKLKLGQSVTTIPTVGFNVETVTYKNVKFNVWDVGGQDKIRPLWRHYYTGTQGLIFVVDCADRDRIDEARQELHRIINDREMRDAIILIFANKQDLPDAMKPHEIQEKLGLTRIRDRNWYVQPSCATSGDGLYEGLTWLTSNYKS
UniProt Q9UJX6, whole entry, looked up: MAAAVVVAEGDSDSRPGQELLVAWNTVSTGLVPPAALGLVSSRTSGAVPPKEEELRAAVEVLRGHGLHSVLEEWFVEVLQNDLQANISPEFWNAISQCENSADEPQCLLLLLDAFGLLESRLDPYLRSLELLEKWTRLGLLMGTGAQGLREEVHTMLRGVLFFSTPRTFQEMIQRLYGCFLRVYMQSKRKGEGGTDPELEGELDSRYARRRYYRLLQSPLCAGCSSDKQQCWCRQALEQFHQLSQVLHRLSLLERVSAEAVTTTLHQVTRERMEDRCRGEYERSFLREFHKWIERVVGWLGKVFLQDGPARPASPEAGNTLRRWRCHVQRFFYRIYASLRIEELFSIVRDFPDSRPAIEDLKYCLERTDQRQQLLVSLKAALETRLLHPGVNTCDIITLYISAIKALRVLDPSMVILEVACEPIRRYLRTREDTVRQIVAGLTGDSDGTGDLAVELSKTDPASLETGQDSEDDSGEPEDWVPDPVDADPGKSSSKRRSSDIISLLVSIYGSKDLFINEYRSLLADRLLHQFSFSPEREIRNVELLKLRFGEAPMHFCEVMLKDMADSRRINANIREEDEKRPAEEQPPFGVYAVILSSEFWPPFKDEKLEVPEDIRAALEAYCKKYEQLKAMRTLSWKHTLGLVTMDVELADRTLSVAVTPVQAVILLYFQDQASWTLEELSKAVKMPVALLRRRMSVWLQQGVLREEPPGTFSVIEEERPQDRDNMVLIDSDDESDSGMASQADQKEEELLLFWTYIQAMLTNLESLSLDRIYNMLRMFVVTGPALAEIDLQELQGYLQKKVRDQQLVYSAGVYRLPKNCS
UniProt P63010: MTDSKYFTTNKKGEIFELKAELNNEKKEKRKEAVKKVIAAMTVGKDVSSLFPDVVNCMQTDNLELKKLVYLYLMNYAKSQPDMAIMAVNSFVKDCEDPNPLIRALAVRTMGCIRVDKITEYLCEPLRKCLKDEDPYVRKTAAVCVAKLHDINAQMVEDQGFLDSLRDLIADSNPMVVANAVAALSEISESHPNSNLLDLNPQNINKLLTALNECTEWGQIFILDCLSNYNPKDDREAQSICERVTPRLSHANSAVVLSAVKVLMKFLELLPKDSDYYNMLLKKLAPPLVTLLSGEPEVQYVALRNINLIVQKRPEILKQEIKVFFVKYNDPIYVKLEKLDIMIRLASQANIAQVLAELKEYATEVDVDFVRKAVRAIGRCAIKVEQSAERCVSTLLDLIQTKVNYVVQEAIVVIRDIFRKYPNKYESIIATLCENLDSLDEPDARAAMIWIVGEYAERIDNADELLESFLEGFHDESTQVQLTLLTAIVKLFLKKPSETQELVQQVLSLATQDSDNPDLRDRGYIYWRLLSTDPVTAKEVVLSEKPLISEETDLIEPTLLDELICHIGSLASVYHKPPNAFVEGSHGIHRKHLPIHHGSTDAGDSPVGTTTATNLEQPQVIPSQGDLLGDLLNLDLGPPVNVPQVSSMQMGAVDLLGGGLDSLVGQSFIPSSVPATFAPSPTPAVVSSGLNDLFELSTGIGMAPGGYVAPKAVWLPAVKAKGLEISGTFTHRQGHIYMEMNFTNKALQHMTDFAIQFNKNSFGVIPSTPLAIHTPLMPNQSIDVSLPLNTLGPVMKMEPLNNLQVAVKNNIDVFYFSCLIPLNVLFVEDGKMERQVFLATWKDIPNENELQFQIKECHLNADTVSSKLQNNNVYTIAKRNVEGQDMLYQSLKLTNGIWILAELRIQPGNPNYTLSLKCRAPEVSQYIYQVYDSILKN
UniProt O60306: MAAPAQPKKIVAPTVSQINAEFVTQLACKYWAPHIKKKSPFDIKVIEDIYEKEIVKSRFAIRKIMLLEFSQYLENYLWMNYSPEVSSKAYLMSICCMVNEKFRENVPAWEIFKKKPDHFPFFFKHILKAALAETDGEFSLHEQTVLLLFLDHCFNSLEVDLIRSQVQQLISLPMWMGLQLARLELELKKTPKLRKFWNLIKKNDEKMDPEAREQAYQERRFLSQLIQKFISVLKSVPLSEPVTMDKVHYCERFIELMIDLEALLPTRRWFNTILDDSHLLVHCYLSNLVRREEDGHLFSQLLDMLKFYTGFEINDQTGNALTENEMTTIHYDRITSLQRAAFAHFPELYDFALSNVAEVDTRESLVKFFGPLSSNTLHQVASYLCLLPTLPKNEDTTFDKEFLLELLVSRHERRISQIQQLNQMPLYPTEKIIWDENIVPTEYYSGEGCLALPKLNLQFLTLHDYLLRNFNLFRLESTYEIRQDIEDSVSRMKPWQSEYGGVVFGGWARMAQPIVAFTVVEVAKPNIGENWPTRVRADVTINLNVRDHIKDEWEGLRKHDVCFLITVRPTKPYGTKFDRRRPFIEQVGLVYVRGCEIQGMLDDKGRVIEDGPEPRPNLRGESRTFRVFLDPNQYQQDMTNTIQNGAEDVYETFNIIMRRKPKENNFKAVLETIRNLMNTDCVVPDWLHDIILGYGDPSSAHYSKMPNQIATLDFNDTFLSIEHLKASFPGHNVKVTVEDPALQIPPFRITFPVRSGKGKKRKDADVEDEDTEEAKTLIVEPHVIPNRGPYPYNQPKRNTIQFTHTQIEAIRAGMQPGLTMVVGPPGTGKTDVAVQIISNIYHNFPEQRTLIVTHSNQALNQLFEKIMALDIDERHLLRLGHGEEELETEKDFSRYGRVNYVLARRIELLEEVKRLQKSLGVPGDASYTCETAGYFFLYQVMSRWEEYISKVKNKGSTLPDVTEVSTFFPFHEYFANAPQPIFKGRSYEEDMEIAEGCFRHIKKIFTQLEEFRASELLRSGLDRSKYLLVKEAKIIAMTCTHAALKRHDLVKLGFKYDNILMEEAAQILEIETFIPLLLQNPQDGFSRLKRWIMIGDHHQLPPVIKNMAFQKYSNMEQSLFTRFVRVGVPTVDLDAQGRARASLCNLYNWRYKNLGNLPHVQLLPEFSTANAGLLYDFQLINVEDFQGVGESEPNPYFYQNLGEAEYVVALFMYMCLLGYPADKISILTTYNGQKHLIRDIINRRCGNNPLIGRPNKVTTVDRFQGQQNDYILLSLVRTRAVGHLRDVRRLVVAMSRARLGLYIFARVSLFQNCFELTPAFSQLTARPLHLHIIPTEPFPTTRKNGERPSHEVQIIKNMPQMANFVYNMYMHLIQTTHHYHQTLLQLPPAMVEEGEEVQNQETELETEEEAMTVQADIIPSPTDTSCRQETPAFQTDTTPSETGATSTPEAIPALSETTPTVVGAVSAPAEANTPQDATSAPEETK
UniProt Q9BZZ5: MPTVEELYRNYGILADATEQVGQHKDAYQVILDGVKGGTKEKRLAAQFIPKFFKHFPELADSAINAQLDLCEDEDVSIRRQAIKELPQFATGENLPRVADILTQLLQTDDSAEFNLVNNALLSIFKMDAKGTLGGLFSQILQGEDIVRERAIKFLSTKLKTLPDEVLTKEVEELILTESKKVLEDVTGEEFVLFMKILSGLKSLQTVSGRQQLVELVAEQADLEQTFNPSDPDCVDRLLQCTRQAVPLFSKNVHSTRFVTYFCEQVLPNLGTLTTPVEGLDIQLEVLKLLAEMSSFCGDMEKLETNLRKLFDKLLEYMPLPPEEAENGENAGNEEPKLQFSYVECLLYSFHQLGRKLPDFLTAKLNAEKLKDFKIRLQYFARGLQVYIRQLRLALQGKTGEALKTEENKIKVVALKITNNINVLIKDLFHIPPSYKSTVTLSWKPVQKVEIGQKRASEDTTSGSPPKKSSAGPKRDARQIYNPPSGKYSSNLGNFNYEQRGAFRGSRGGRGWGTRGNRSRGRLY
UniProt P08133: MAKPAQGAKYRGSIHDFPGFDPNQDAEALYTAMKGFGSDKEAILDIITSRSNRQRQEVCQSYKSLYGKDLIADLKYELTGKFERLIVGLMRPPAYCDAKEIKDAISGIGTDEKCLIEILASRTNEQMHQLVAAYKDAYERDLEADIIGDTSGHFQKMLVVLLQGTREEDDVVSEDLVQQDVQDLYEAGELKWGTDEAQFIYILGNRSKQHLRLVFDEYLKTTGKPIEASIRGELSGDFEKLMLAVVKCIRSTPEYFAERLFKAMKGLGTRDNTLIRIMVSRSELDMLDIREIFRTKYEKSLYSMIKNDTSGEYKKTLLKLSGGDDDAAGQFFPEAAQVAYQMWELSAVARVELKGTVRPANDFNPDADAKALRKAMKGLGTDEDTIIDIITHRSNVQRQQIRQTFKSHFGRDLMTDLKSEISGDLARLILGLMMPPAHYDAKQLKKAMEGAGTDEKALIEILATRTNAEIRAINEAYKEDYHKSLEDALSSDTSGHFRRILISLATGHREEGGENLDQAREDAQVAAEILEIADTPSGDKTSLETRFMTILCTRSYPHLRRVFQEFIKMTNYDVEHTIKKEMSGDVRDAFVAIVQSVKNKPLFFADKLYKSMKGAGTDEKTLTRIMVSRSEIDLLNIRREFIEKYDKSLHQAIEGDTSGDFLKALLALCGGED

Columns and labels:
Assay in all cases: log2 fold change, soluble protein after heating vs DMSO (PISA); higher = thermal stabilisation; K562 cells, 10 uM, 30 min; active = over 0.2 and 3.5 SD of the protein, either way, in both replicates (recomputed)
[1] = compound: CC1=C(C=C(C=C1)NC(=O)C2=CC(=CC=C2)C(C)(C)C#N)NC3=CC4=C(C=C3)N=CN(C4=O)C
Outline: (§1)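 K562 cells at 2×10^6 cells/mL were given 10 μM compound for 30 min. Aliquots then went through 3 min of heating across 48°C-58°C, were pooled, and were extracted in PBS with 0.5% NP-40 at 4°C, and the supernatant after 21,000xg for 90 min was quantified by TMTpro 16plex LC-MS/MS with channel sums equalised. Thermal stability relative to control samples, from duplicates, is given as log2 fold change.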

[2] = compound: CC1=C(C=C(C=C1)NC(=O)C2=CC(=CC=C2)N(C)C)NC(=O)C3=CC=C(C=C3)O
Outline: as §1

[3] = compound: CC1=CC=C(C=C1)SC2=C3C=C(SC3=CN=C2)C(=O)N
Outline: as §1

[4] = compound: CC1=NC(=CC=C1)C2=C(N=C(N2)C(C)(C)C)C3=CC4=NC=CN=C4C=C3
Outline: as §1

Nexturastat A = compound: CCCCN(Cc1ccc(C(=O)NO)cc1)C(=O)Nc1ccccc1 [Nexturastat A]
Outline: as §1

vemurafenib = compound: CCCS(=O)(=O)Nc1ccc(F)c(C(=O)c2c[nH]c3ncc(-c4ccc(Cl)cc4)cc23)c1F [vemurafenib]
Outline: as §1

[5] = compound: CCCS(=O)(=O)Nc1ccc(F)c(C(=O)c2c[nH]c3ncc(Cl)cc23)c1F
Outline: as §1

[6] = compound: CCCc1cc(C)[nH]c(=O)c1CNC(=O)c1cc(-c2ccnc(N3CCN(C)CC3)c2)cc2c1cnn2C(C)C
Outline: as §1

givinostat = compound: CCN(CC)Cc1ccc2cc(COC(=O)Nc3ccc(C(=O)NO)cc3)ccc2c1 [givinostat]
Outline: as §1

barasertib = compound: CCN(CCCOc1ccc2c(Nc3cc(CC(=O)Nc4cccc(F)c4)[nH]n3)ncnc2c1)CCOP(=O)(O)O [barasertib]
Outline: as §1

Target	log2 fold change [1]	log2 fold change [2]	log2 fold change [3]	log2 fold change [4]	log2 fold change (Nexturastat A)	log2 fold change (vemurafenib)	log2 fold change [5]	log2 fold change [6]	log2 fold change (givinostat)	log2 fold change (barasertib)
ANAPC16 (UniProt Q96DE5)	inactive: 0.026	inactive: -0.031	inactive: -0.047	inactive: -0.008	inactive: 0.035	inactive: 0.076	inactive: -0.047	inactive: 0.032	inactive: -0.025	inactive: 0.092
APMAP (UniProt Q9HDC9)	inactive: 0.002	inactive: 0.018	inactive: 0.017	inactive: 0	inactive: -0.06	inactive: -0.029	inactive: -0.01	inactive: -0.059	inactive: -0.029	inactive: 0.002
ARFGEF1 (UniProt Q9Y6D6)	inactive: -0.03	inactive: -0.013	inactive: -0.014	inactive: 0	inactive: -0.042	inactive: 0.035	inactive: 0.041	inactive: 0.155	inactive: 0.029	inactive: -0.015
ARFGAP3 (UniProt Q9NP61)	inactive: 0.008	inactive: 0.033	inactive: 0.003	inactive: -0.013	inactive: -0.02	inactive: 0.028	inactive: 0	inactive: -0.014	inactive: -0.008	inactive: 0.037
APOOL (UniProt Q6UXV4)	inactive: 0.032	inactive: 0.03	inactive: -0.009	inactive: 0.015	inactive: -0.031	inactive: -0.032	inactive: -0.014	inactive: -0.013	inactive: -0.006	inactive: -0.003
ARAF (UniProt P10398)	inactive: 0.063	inactive: -0.049	inactive: -0.069	inactive: -0.007	inactive: 0.003	inactive: 0.064	inactive: 0.123	inactive: 0.019	inactive: 0.029	inactive: 0.074
APOC1 (UniProt P02654)	inactive: 0.037	inactive: -0.038	inactive: -0.006	inactive: -0.087	inactive: 0.054	inactive: -0.031	inactive: -0.053	inactive: 0.019	inactive: -0.086	inactive: 0.03
ANGPTL3 (UniProt Q9Y5C1)	inactive: -0.038	inactive: -0.105	inactive: -0.034	inactive: 0.145	inactive: -0.004	inactive: 0.158	inactive: -0.235	inactive: -0.141	inactive: -0.154	inactive: 0.012
ARIH1 (UniProt Q9Y4X5)	inactive: -0.007	inactive: 0.034	inactive: 0.05	inactive: 0.006	inactive: -0.007	inactive: -0.033	inactive: 0.01	inactive: -0.042	inactive: -0.1	inactive: 0.002
ARFGEF2 (UniProt Q9Y6D5)	inactive: -0.117	inactive: 0.012	inactive: -0.032	inactive: -0.023	inactive: -0.031	inactive: 0.043	inactive: 0.075	inactive: 0.117	inactive: 0.038	inactive: 0.014
AP4E1 (UniProt Q9UPM8)	inactive: -0.014	inactive: 0.001	inactive: -0.05	inactive: 0.086	inactive: 0.207	inactive: 0.022	inactive: 0.117	inactive: -0.067	inactive: 0.033	inactive: 0.407
APOE (UniProt P02649)	inactive: -0.036	inactive: -0.022	inactive: 0.075	inactive: 0.018	inactive: -0.027	inactive: 0.142	inactive: -0.02	inactive: -0.019	inactive: -0.058	inactive: 0.053
AP3B1 (UniProt O00203)	inactive: -0.001	inactive: -0.038	inactive: 0.002	inactive: 0.016	inactive: 0.009	inactive: 0.022	inactive: 0.054	inactive: 0.019	inactive: 0.024	inactive: 0.054
ARHGEF7 isoform 5 (UniProt Q14155)	inactive: 0.033	inactive: -0.053	inactive: 0.024	inactive: 0.02	inactive: 0.291	inactive: -0.004	inactive: 0.005	inactive: 0.097	inactive: 0.081	inactive: 0.099
ARF3 (UniProt P61204)	inactive: 0.024	inactive: 0.026	inactive: 0	inactive: 0.029	inactive: -0.091	inactive: 0.02	inactive: 0.005	inactive: -0.012	inactive: 0.005	inactive: -0.014
APOBEC3C (UniProt Q9NRW3)	inactive: 0.004	inactive: 0.032	inactive: -0.172	inactive: -0.069	inactive: 0.292	inactive: -0.057	inactive: 0.013	inactive: -0.008	inactive: 0.06	inactive: -0.057

Two records drawn at random from the list so far:
Target	log2 fold change [1]	log2 fold change [2]	log2 fold change [3]	log2 fold change [4]	log2 fold change (Nexturastat A)	log2 fold change (vemurafenib)	log2 fold change [5]	log2 fold change [6]	log2 fold change (givinostat)	log2 fold change (barasertib)
APOE (UniProt P02649)	inactive: -0.036	inactive: -0.022	inactive: 0.075	inactive: 0.018	inactive: -0.027	inactive: 0.142	inactive: -0.02	inactive: -0.019	inactive: -0.058	inactive: 0.053
ARHGEF7 isoform 5 (UniProt Q14155)	inactive: 0.033	inactive: -0.053	inactive: 0.024	inactive: 0.02	inactive: 0.291	inactive: -0.004	inactive: 0.005	inactive: 0.097	inactive: 0.081	inactive: 0.099

Going on with the list:

Target	log2 fold change [1]	log2 fold change [2]	log2 fold change [3]	log2 fold change [4]	log2 fold change (Nexturastat A)	log2 fold change (vemurafenib)	log2 fold change [5]	log2 fold change [6]	log2 fold change (givinostat)	log2 fold change (barasertib)
ANK3 (UniProt Q12955)	inactive: -0.109	inactive: -0.033	inactive: -0.03	inactive: -0.187	inactive: 0.044	inactive: 0.119	inactive: -0.018	inactive: -0.194	inactive: -0.018	inactive: 0.051
ARF6 (UniProt P62330)	inactive: 0	inactive: -0.033	inactive: 0.021	inactive: 0.033	inactive: -0.076	inactive: -0.009	inactive: 0.022	inactive: -0.075	inactive: 0.018	inactive: -0.001
AP2A1 (UniProt O95782)	inactive: 0.024	inactive: -0.016	inactive: 0.004	inactive: 0.084	inactive: 0.048	inactive: 0.009	inactive: 0.03	inactive: -0.003	inactive: 0.008	inactive: -0.028
APAF1 (UniProt O14727)	inactive: 0.023	inactive: 0.014	inactive: -0.003	inactive: -0.125	inactive: 0.056	inactive: -0.006	inactive: -0.068	inactive: -0.1	active: 0.395	–
AP2M1 (UniProt Q96CW1)	inactive: 0.022	inactive: -0.019	inactive: -0.023	inactive: 0.002	inactive: 0.073	inactive: -0.006	inactive: 0.014	inactive: -0.049	inactive: 0.031	inactive: -0.074
ANAPC2 (UniProt Q9UJX6)	inactive: 0.031	inactive: -0.015	inactive: -0.001	inactive: 0.069	inactive: -0.045	inactive: 0.027	inactive: 0.047	inactive: -0.049	inactive: 0.042	inactive: 0.022
ANKRD29 (UniProt Q8N6D5)	inactive: 0.046	inactive: 0.022	inactive: 0.027	inactive: -0.035	inactive: 0.371	inactive: -0.064	inactive: -0.031	inactive: -0.073	inactive: 0.247	inactive: -0.124
AP1G1 isoform 2 (UniProt O43747)	inactive: 0.036	inactive: -0.035	inactive: 0.039	inactive: 0.016	inactive: 0.032	inactive: 0.093	inactive: 0.087	inactive: -0.004	inactive: -0.005	inactive: 0.055
APEH (UniProt P13798)	inactive: -0.012	inactive: 0.011	inactive: 0.002	inactive: -0.01	inactive: -0.062	inactive: -0.024	inactive: -0.011	inactive: -0.018	inactive: -0.019	inactive: 0.011
AP1B1 (UniProt Q10567)	inactive: 0.01	inactive: -0.017	inactive: 0.071	inactive: -0.009	inactive: -0.048	inactive: 0.017	inactive: 0.11	inactive: -0.049	inactive: 0.019	inactive: 0.007
AP2B1 isoform 2 (UniProt P63010)	inactive: 0.016	inactive: 0.018	inactive: 0.021	inactive: 0.018	inactive: 0.033	inactive: 0.031	inactive: 0.039	inactive: -0.021	inactive: 0.015	inactive: -0.013
AQR (UniProt O60306)	inactive: -0.131	inactive: -0.01	inactive: -0.001	inactive: -0.079	inactive: 0.067	inactive: -0.009	inactive: -0.049	inactive: 0.061	inactive: 0.158	–
APH1B (UniProt Q8WW43)	inactive: -0.241	–	–	–	–	–	–	–	–	–
API5 isoform 2 (UniProt Q9BZZ5)	inactive: -0.017	inactive: 0	inactive: -0.102	inactive: 0.003	inactive: -0.037	inactive: -0.047	inactive: -0.048	inactive: -0.021	inactive: -0.067	inactive: -0.017
ANXA6 (UniProt P08133)	inactive: -0.001	inactive: -0.034	inactive: -0.018	inactive: 0.005	inactive: -0.038	inactive: 0.013	inactive: 0.004	inactive: -0.064	inactive: 0.03	inactive: 0.072
